PubChem BioAssay AID2685 (National Center for Advancing Translational Sciences (NCATS), 2010)
The other results are listed elsewhere or left out. Further columns of the screen follow, without active or inactive calls. Most of these compounds were active or inconclusive in the main read-out, so they are no random draw. Words in brackets tell the shape of the fitted curve; partial curves, single points and poor fits give uncertain potencies.

Test: qHTS Assay for Lipid Storage Modulators in Drosophila S3 Cells;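 as to cell number change: cells counted by Cell Tracker Red CMTPX staining in the red channel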
Details: BODIPY lipid droplet fluorescence, 18-24 h; for cell number change: measured here: cell count max response, cells fed with added oleic acid
In short: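 Drosophila S3 cells loaded with oleic acid (400 uM, as added) and compounds at several concentrations; lipid droplets imaged by 488-nm laser-scanning cytometry, 500–530 nm intensity and object ratio to cell channel. Percent activity normalized to 20 uM Triacsin C.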

[1] = measured here: lipid fluorescence (Fed channel) AC50, cells fed with added oleic acid
[2] = measured here: cell number channel AC50, cells fed with added oleic acid

COc1ccc(OCCC(=O)N2CCCCC2)cc1
cell number change: 11.1% | AC50 [1]: 29.1 µM [rising, single point]

O=C(Cn1c(-c2cncs2)nc2ccccc21)NCc1ccccc1
cell number change: 91.2% | AC50 [2]: 23.1 µM [rising, single point] | AC50 [1]: 0.461 µM [falling, single point]

CCOc1ccc(-c2nnc(-c3ccco3)o2)cc1OCC
cell number change: 0.974%

O=C(CN(Cc1ccccc1)S(=O)(=O)c1ccc(F)cc1)NCc1ccccn1
cell number change: -16.7% | AC50 [1]: 5.17 µM [rising, single point]

Cn1c(=O)c2c(ncn2CC(N)=O)n(C)c1=O
cell number change: -51.4% | AC50 [2]: 0.259 µM [falling, full curve, poor fit]

O=C(Nc1cccc2ncccc12)C12CC3CC(CC(C3)C1)C2
cell number change: 0.694% | AC50 [1]: 0.259 µM [rising, partial curve, poor fit]

COc1ccc(N=Nc2nc(-c3ccccc3)c(-c3ccccc3)[nH]2)cc1
cell number change: -41.3% | AC50 [2]: 4.11 µM [falling, full curve] | AC50 [1]: 2.31 µM [falling, full curve]

Cc1onc(-c2ccccc2)c1C(=O)Nc1ccc(N2CCOCC2)cc1
AC50 [1]: 6.51 µM [falling, partial curve, poor fit]

O/C=c1\ccc2cccc3nc(C(F)(F)F)nc1c23
cell number change: -35.5% | AC50 [2]: 29.1 µM [falling, partial curve, poor fit] | AC50 [1]: 16.4 µM [falling, partial curve, poor fit]

COc1ccc(C2=NOC(C(=O)NCC(C)C)C2)cc1 (stereo unspecified)
cell number change: 19.6% | AC50 [1]: 20.6 µM [rising, partial curve, poor fit]

Cc1nn(CCC(=O)N2CCN(S(=O)(=O)c3ccc(Cl)cc3)CC2)c(C)c1C
cell number change: 10.7% | AC50 [1]: 29.1 µM [rising, partial curve, poor fit]

Cc1ccccc1S(=O)(=O)Cc1ccc(C(=O)NCCCN2CCN(C)CC2)o1
cell number change: 3.33% | AC50 [2]: 0.103 µM [falling, full curve, poor fit] | AC50 [1]: 0.116 µM [falling, full curve, poor fit]

N#C/C(=C\c1ccncc1)c1nc2ccccc2[nH]1
AC50 [2]: 4.11 µM [rising, single point]

CC(=O)Nc1ccc(S(=O)(=O)N2CCN(c3nnnn3-c3ccccc3)CC2)cc1
cell number change: -50.2% | AC50 [2]: 4.11 µM [falling, full curve, poor fit] | AC50 [1]: 7.31 µM [falling, partial curve]

Cc1cc(C)c(C)c(S(=O)(=O)N(C)C2CCN(C)CC2)c1C
cell number change: 36.6% | AC50 [2]: 2.59 µM [rising, full curve]

O=C(O)C1=CC(=C(c2ccc(O)c(C(=O)O)c2)c2ccc(O)c(C(=O)O)c2)C=CC1=O
cell number change: 1.75% | AC50 [1]: 29.1 µM [rising, single point]

c1ccc2c(N3CCOCC3)c3c(nc2c1)CCC3
cell number change: -7.33% | AC50 [1]: 0.651 µM [falling, single point]

COc1ccc(Cl)cc1NC(=O)CCCC(=O)c1ccccc1
cell number change: -59.1% | AC50 [2]: 14.6 µM [falling, partial curve] | AC50 [1]: 10.3 µM [falling, partial curve]

COc1ccc(CCNC(=O)COC(=O)/C=C/c2cc(OC)c(OC)c(OC)c2)cc1OC
cell number change: -67.6% | AC50 [2]: 3.26 µM [falling, full curve] | AC50 [1]: 2.91 µM [falling, full curve]

COC(=O)c1cn(NC(=O)Cc2ccccc2Br)c(=O)c2ccccc12
AC50 [2]: 0.731 µM [rising, single point] | AC50 [1]: 0.82 µM [rising, full curve]

O=C(c1cccs1)N1CCN(c2ncc(C(F)(F)F)cc2Cl)CC1
cell number change: -13.9%

CCc1c(C)nc(N)n2c(SCC(=O)N3CCCc4ccccc43)nnc12
cell number change: 61.7% | AC50 [2]: 11.6 µM [rising, partial curve]

COc1ccc(C)cc1NC(=O)NCCCCc1ccccc1
cell number change: -69% | AC50 [2]: 17.8 µM [falling, partial curve] | AC50 [1]: 8.91 µM [falling, partial curve]

CC(C)c1ccc(-c2nnn(Cc3nc4ccccc4s3)n2)cc1
cell number change: 11.7% | AC50 [1]: 0.164 µM [falling, full curve]

O=C1CC(c2ccco2)CC2=C1C1c3ccccc3C(=O)N1c1ccccc1N2 (stereo unspecified)
cell number change: -5.25% | AC50 [1]: 13 µM [rising, single point]

CC1CCCN(C(=O)CSc2ncccn2)C1 (stereo unspecified)
cell number change: 0.794% | AC50 [1]: 9.2 µM [falling, single point]

COc1ccc(C(=O)CNc2cccc(F)c2)cc1
cell number change: -15% | AC50 [1]: 29.1 µM [falling, single point]

COc1ccc(C/C(N)=N/OC(C)=O)cc1OC
cell number change: -20.1% | AC50 [1]: 0.731 µM [falling, full curve]

Clc1ccc(-n2ncc3c(N4CCCCCC4)ncnc32)cc1
cell number change: 26.8% | AC50 [1]: 29.1 µM [rising, single point]

CCCN(CCC)CCNC(=O)CCC(=O)Nc1ccc2nc(N3CCOCC3)cc(C)c2c1
cell number change: 9.91% | AC50 [1]: 2.31 µM [rising, full curve]

CCc1ccc(-c2nnn(CCC#N)n2)cc1
cell number change: 29.7% | AC50 [1]: 18.4 µM [rising, single point]

COc1ccc(S(=O)(=O)N2CCOCC2)cc1NC(=O)c1ccc(=O)[nH]c1
cell number change: -13.7%

CC1CCCCN1Cc1c(O)ccc2c(=O)c(-c3ccccc3)coc12 (stereo unspecified)
cell number change: 7.98% | AC50 [1]: 0.00411 µM [rising, full curve, poor fit]

COc1ccc(-c2[nH]ncc2CN2CCCN(c3ccccc3)CC2)c(F)c1
cell number change: -8.53%

CC(C)C(NC(=O)C12CC3CC(CC(C3)C1)C2)C(=O)NC1=NCCS1 (stereo unspecified)
cell number change: -5.05% | AC50 [1]: 1.16 µM [rising, single point]

N#Cc1ccc(OCC(=O)OCC(=O)c2ccc[nH]2)cc1
cell number change: 4.18% | AC50 [1]: 3.26 µM [falling, partial curve]

Cc1cnc(C(=O)OCC(=O)c2c[nH]c3ccccc23)cn1
cell number change: 10.1% | AC50 [2]: 3.66 µM [falling, single point] | AC50 [1]: 4.11 µM [falling, single point]

O=C(OCC(=O)N1CCOCC1)c1ccc(Cl)cc1[N+](=O)[O-]
cell number change: 9.17% | AC50 [1]: 13 µM [rising, single point]

Cc1ccc(C)n1-c1ccc(-c2nnco2)cc1
cell number change: 38.4% | AC50 [1]: 29.1 µM [rising, single point]

CC1=C(C(=O)Nc2ccccc2)C(c2ccc(C)o2)n2ncnc2N1 (stereo unspecified)
cell number change: -8.66% | AC50 [1]: 0.00651 µM [falling, full curve, poor fit]

Cc1nccn1CC(O)COc1ccccc1 (stereo unspecified)
cell number change: 21.2% | AC50 [1]: 29.1 µM [rising, partial curve, poor fit]

CN([C@@H](Cc1ccc(OS(=O)(=O)c2cccc3cnccc23)cc1)C(=O)N1CCN(c2ccccc2)CC1)S(=O)(=O)c1cccc2cnccc12
cell number change: -10.9% | AC50 [1]: 3.26 µM [rising, partial curve]

Cc1cc(OCc2cc(C(=O)N3CCN(C)C(=O)[C@@H]3C)no2)cc(C)c1Cl
cell number change: -59.1% | AC50 [2]: 18.4 µM [falling, partial curve]

Cc1ccc(OCC(=O)Nc2c(C)nn(-c3ccccc3)c2C)c(Br)c1
cell number change: 77.9% | AC50 [2]: 2.59 µM [rising, partial curve]

COCCCNC(=O)Cn1c(=O)n(Cc2ccc(C(=O)NCCc3ccc(OC)c(OC)c3)cc2)c(=O)c2ccccc21
cell number change: -32.5% | AC50 [2]: 16.4 µM [falling, single point] | AC50 [1]: 23.1 µM [falling, single point]

COc1ccc(S(=O)(=O)Nc2c(NC3CCCCC3)c3ccccc3oc2=O)cc1OC
cell number change: -37.1% | AC50 [2]: 18.4 µM [falling, single point]

CCOC(=O)Cc1csc(NC(=O)CSc2ccc(Br)cc2)n1
cell number change: 13.4%

COc1ccc(NC(=O)CN(C)C(=O)CCCc2nc3ccccc3c(=O)[nH]2)cc1
cell number change: -0.33% | AC50 [1]: 2.91 µM [falling, single point]

COCCNCc1ccc(Cl)cc1Cl
cell number change: 116% | AC50 [2]: 0.116 µM [rising, full curve] | AC50 [1]: 0.146 µM [rising, full curve, poor fit]

C1CC1Cc1noc(CN2CCN(C3C4CC5CC(C4)CC3C5)CC2)n1 (stereo unspecified)
cell number change: 7.16% | AC50 [1]: 0.116 µM [falling, full curve, poor fit]

Cc1cc(C)nc(NC(N)=NC2CCCCC2)n1
cell number change: -38.8% | AC50 [2]: 7.31 µM [falling, partial curve, poor fit]

Cc1ccc(CNC(=O)c2cccc3c2C(=O)c2ccc(N4CCOCC4)cc2S3(=O)=O)cc1
cell number change: -24.5% | AC50 [2]: 0.82 µM [falling, partial curve] | AC50 [1]: 4.11 µM [falling, partial curve, poor fit]

COc1ccc(Cc2nnc(SCC(=O)NC(C)c3ccccc3)o2)cc1 (stereo unspecified)
cell number change: -0.606% | AC50 [1]: 0.164 µM [falling, full curve, poor fit]

COC(=O)c1c(O)c2c([nH]c1=O)CCCC2
cell number change: -4.17% | AC50 [2]: 6.51 µM [falling, single point] | AC50 [1]: 5.8 µM [falling, full curve, poor fit]

CCn1nnnc1SCCSc1nnnn1CC
cell number change: -100% | AC50 [2]: 23.1 µM [falling, partial curve]

COc1ccc2[nH]c(C(=O)O)c(NS(=O)(=O)c3ccc(C)cc3C)c2c1
cell number change: -7.75%

COCC(=O)N1CCc2ccc(NC(=O)c3ccccc3Cl)cc2C1
cell number change: 1.76%

CN(c1ccccc1)S(=O)(=O)c1ccc(C(=O)Nc2ncccc2O)cc1
cell number change: 14.7%

CCOC(=O)c1sc(NC(=O)CCC(=O)O)nc1C
cell number change: -39.2% | AC50 [2]: 3.66 µM [falling, partial curve, poor fit]
